Experimental data published in article PMC3005887 (Research letters in biochemistry, 2009).
Changes are numbered by the printed parent chain. These are yes or no findings as the source states them, for the method shown. Tags and fused reporters may be left off the sequences shown.

Chains of the proteins cited; added tags and fusions are not shown. Residues count along the entry.
UniProt P49951, residues 1074-1675: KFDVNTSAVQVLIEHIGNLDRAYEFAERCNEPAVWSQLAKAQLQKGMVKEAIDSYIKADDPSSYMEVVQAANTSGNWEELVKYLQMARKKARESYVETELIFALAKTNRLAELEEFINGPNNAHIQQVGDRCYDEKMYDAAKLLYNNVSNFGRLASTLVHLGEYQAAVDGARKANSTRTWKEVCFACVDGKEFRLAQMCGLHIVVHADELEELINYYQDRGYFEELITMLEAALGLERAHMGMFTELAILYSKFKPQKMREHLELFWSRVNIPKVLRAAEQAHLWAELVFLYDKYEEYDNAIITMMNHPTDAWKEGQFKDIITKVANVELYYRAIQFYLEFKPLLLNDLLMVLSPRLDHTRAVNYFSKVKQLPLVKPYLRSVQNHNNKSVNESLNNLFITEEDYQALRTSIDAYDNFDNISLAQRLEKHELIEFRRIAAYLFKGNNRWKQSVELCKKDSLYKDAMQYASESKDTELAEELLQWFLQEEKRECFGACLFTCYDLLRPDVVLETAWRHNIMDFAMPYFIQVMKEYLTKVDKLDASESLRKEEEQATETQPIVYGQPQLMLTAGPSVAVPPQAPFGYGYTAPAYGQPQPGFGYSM

Experiments:
[1] = target: T1, GST-HIP1h (Huntingtin-interacting protein 1, aa370-644), wild type (human) (UniProt O00291); test: pull-down; GST or GST-HIP1h on glutathione Sepharose 4B beads; 6HisLCb and hub premixed 3:1 at 4 C for at least 30 min; 0.4 nmol hub alone or 1.9 nmol hub/6HisLCb complex; binding buffer 50 mM Tris, 200 mM KCl, 1 mM EDTA, 1% Triton X-100, 50 mM imidazole, 0.5 mg/ml ovalbumin, pH 8.0; 4 C, 1 hour; Western blot (anti-His, CON.1, anti-GST); both purified
T1 sequence: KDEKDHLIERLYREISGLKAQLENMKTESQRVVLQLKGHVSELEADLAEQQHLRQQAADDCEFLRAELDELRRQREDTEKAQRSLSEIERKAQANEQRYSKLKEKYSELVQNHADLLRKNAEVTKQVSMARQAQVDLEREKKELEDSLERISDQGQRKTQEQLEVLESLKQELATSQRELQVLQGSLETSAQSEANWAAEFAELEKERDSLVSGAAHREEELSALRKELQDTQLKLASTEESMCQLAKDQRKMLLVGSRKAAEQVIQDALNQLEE

[2] = target: T2, GST-HIP1h (aa370-644) K494E/R500E double mutant (human) (UniProt O00291); test: as above
T2 sequence: T1 sequence with K125E, R131E

6Hishub alone (clathrin hub, bovine clathrin heavy chain aa1074-1675, no bound LCb) (from UniProt P49951 1074-1675) (domain or fragment)
binding [1]: no binding (tested: 0.4 nmol of Hub Alone)

6Hishub/6HisLCb (clathrin hub with bound clathrin light chain b) (from UniProt P49951 1074-1675; P04975 1-228) (complex)
binding [2]: no binding (tested: 1.9 nmol of Hub 6HisLCb complex)
